Results are given in words; binding and its absence hold for the method and conditions named. Binding seen in cells or lysates may run through a third protein. A result given as binding can be weak or reduced; the word gives no strength. Sequences can lack the tags named with a protein.
Target: T1, Irr1-GFP (full-length) (S. cerevisiae) (UniProt P40541)
T1 sequence: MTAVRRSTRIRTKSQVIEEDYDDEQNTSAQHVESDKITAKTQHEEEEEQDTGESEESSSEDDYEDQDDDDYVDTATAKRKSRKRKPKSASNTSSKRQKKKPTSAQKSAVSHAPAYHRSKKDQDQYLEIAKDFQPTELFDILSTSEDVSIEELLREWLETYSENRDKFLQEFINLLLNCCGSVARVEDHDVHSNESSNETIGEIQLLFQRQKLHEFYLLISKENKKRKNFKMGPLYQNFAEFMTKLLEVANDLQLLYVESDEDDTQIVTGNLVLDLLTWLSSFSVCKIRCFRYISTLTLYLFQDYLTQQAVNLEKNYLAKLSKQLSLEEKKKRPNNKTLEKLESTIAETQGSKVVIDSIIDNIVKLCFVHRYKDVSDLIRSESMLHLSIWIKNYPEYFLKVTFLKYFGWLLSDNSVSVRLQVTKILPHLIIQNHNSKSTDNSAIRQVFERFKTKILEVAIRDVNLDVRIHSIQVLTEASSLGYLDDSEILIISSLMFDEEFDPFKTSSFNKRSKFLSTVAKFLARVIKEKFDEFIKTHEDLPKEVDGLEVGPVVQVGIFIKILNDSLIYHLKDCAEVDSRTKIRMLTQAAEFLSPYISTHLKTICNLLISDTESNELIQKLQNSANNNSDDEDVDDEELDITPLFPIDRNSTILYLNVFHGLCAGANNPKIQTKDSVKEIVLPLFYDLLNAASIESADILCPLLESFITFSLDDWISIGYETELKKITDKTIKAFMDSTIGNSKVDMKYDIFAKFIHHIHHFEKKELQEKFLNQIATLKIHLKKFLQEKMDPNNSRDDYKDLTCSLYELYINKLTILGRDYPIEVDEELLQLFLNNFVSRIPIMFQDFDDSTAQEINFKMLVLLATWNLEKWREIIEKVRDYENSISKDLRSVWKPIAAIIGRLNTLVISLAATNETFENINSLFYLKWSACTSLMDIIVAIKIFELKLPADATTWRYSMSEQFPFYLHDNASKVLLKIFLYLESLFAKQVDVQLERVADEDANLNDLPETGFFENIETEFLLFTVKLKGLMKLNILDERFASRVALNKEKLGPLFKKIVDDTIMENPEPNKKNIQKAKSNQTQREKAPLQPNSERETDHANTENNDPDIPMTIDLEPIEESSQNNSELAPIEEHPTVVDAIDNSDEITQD
Test: co-IP; lysate of cells nitrogen-starved 22 h in SD-N; anti-GFP or anti-RFP magnetic beads, 4 °C, 2 h; 50 mM Tris-HCl pH 7.5, 50 mM NaCl, 0.2% Triton X-100; Western blot with anti-RFP or anti-GFP

- binding: binds
Substance: Imi1-RFP (full-length) (S. cerevisiae)
